The target in assay [1] is metabotropic glutamate receptor 1 (mGluR1), endogenous mouse (mouse (endogenous in cerebellum)) (UniProt P97772). Put plainly: co-IP; synaptosomal fraction of cerebella from wild-type, L7-mGluR5 Tg or mGluR5-rescue mice, solubilised in 50 mM Tris-HCl pH 7.4, 150 mM NaCl, 1% NP-40; incubated overnight with antibody to mGluR1 or mGluR5 (control mouse or rabbit IgG), protein G Sepharose; immunoblot for mGluR5, mGluR1 and Pan-Homer. (In general: A western blot detects proteins with antibodies after separation by electrophoresis.)

Amino acid sequences for entries named in this document (tags omitted). A change or cut given only in a name is not applied to a line headed by its entry. Chains listed by the source or under a name are the forms on record and can include a tag or linker. Residues count along the entry.
UniProt P97772, residues 21-1199: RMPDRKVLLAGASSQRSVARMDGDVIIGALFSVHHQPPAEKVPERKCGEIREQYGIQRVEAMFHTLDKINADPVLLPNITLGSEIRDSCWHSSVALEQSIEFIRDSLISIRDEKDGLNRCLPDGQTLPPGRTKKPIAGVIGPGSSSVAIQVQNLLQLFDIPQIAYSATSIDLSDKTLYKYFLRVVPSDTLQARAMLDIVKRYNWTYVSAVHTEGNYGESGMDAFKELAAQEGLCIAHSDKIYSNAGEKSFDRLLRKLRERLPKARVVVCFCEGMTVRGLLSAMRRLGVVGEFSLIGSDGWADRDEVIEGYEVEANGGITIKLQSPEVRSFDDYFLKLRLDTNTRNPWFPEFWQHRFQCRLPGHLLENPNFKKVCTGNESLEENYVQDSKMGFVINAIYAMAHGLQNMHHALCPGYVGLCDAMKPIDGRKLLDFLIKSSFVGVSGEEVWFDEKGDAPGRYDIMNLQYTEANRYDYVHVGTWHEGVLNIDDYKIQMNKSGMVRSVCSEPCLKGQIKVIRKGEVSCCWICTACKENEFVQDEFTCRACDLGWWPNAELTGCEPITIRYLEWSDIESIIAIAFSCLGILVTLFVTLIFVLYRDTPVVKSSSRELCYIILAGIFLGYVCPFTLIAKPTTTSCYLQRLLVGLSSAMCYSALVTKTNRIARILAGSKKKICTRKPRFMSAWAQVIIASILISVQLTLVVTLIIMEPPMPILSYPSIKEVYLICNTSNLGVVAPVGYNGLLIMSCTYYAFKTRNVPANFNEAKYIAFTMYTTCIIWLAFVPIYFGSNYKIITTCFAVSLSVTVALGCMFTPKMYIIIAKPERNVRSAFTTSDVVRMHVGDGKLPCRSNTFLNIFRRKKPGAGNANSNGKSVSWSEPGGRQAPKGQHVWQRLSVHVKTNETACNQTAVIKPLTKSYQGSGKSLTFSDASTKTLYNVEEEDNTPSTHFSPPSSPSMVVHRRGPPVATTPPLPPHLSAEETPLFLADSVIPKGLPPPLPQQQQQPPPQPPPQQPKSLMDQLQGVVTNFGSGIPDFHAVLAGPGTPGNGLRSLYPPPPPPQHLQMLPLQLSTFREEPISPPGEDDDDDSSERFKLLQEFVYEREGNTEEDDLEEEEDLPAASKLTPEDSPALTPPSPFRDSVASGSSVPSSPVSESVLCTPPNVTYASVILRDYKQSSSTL
metabotropic glutamate receptor 5a (mGluR5a), rat, expressed from the L7-mGluR5a transgene in mouse Purkinje cells (P31424-2, form named): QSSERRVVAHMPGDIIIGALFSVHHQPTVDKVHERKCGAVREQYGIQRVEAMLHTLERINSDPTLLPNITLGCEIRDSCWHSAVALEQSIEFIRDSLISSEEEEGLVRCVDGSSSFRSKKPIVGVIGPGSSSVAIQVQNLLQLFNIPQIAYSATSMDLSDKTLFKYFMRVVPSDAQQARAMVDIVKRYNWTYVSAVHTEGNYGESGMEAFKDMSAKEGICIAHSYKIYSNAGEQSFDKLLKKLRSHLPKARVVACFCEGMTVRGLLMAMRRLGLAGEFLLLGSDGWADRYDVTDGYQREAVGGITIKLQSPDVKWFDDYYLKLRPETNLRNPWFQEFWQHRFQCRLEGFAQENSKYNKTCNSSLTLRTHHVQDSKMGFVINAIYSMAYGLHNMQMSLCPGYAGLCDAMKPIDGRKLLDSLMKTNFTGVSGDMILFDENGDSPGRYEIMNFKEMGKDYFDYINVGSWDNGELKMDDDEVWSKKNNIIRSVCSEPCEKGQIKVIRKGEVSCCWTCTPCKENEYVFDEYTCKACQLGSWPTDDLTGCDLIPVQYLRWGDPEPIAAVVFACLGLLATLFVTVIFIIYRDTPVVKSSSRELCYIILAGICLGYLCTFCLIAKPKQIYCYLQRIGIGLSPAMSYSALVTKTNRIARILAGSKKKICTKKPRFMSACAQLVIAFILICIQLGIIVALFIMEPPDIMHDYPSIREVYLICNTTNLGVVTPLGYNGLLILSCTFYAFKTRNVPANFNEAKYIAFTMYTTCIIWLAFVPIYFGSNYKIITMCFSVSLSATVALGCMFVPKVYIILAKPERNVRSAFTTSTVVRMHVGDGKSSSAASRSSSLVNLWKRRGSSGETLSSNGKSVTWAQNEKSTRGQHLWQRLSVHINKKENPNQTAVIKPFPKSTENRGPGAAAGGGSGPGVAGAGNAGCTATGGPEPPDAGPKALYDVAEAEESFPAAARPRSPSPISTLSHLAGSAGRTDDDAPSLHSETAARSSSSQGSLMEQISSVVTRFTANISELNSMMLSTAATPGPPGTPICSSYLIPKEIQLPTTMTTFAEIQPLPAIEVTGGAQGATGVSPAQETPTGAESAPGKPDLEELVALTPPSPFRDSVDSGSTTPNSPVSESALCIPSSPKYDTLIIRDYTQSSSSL

Assay [2] has as its target metabotropic glutamate receptor 5a (mGluR5a), rat, expressed from the L7-mGluR5a transgene in mouse Purkinje cells (rat) (UniProt P31424). The description is as above.

These are yes or no findings as the source states them, for the method shown. Binding seen in cells or lysates may run through a third protein. Some results given as binding are weak or reduced against the parent protein; the word gives no strength.

For the substance “metabotropic glutamate receptor 5a (mGluR5a), rat, expressed from the L7-mGluR5a transgene in mouse Purkinje cells (from UniProt P31424-2 21-1171)”, the binding result in assay [1] is listed as “binds”. Turning to “metabotropic glutamate receptor 1 (mGluR1), endogenous mouse (from UniProt P97772 21-1199)”, in assay [2], the binding entry is listed as “binds”.
